{"source": "paper PMC8779140", "about": "(Pharmaceutics, 2022)", "biological_target": "T1, SARS-CoV-2 PL^pro (Severe acute respiratory syndrome coronavirus 2, UniProt P0DTD1)", "T1 construct": "The synthetic gene of SARS-CoV-2 PL^pro was cloned into the pET16b vector; made in house; host or cells: E. coli BL21(DE3)", "experiment": "biochemical"}
{"smiles": "CC/C(=C(\\c1ccccc1)c1ccc(OCCN(C)C)cc1)c1ccccc1", "note": "[Tamoxifen]", "values": [{"measurement": "IC50", "value": "41 ± 3.6", "unit": "µM"}]}
